Laboratory results from publication PMC6669929.
These are yes or no findings as the source states them, for the method shown. Some binding calls cover weakened binding; strength is not graded here.

Legend:
[1] = target: T1, IRE1α, endogenous in MEFs and in mouse spinal cord (mouse (endogenous in MEFs and spinal cord)), Q9EQY0; test: sucrose density-gradient centrifugation; untransfected control and MITOL-KO MEFs treated with tunicamycin 4 h, NP-40 lysate, 20–40% sucrose gradient, 250,000 g 12 h 4°C, fractions immunoblotted with anti-IRE1α (Fig 3B); conditions: remark: other sources report otherwise
[2] = target: T1, IRE1α, endogenous in MEFs and in mouse …; test: sucrose density-gradient centrifugation; spinal cord of WT or MITOL^nestin mice treated with 1 mg/kg tunicamycin for 24 h, solubilized with NP-40 lysis buffer, sucrose gradient, immunoblot (Fig 7B); conditions: remark: other sources report otherwise

binding [1]: binds | binding [2]: binds
B1: IRE1α, endogenous in MEFs and in mouse spinal cord, Q9EQY0 21-977 (protein)
chain: SFGRTSTVTLPETLLFVSTLDGSLHAVSKRTGSIKWTLKEDPVLQVPTHVEEPAFLPDPNDGSLYTLGGKNNEGLTKLPFTIPELVQASPCRSSDGILYMGKKQDIWYVIDLLTGEKQQTLSSAFADSLCPSTSLLYLGRTEYTITMYDTKTRELRWNATYFDYAASLPEDDVDYKMSHFVSNGDGLVVTVDSESGDVLWIQNYASPVVAFYVWQGEVLRKVVHINVAVETLRYLTFMSGEVGRITKWKYPFPKETEAKSKLTPTLYVGKYSTSLYASPSMVHEGVAVVPRGSTLPLLEGPQTDGVTIGDKGECVITPSTDLKFDPGLKGKSKLNYLRNYWLLIGHHETPLSASTKMLERFPNNLPKHRENVIPADSEKRSFEEVINIVGQTSDNTPTTVSQDVEEKLARAPAKPEAPVDSMLKDMATIILSTFLLVGWVAFIITYPLSVHQQRQLQHQQFQKELEKIQLLQQQQLPFHPHGDLTQDPEFLDSSGPFSESSGTSSPSPSPRASNHSLHPSSSASRAGTSPSLEQDDEDEETRMVIVGKISFCPKDVLGHGAEGTIVYKGMFDNRDVAVKRILPECFSFADREVQLLRESDEHPNVIRYFCTEKDRQFQYIAIELCAATLQEYVEQKDFAHLGLEPITLLHQTTSGLAHLHSLNIVHRDLKPHNILLSMPNAHGRIKAMISDFGLCKKLAVGRHSFSRRSGVPGTEGWIAPEMLSEDCKDNPTYTVDIFSAGCVFYYVISEGNHPFGKSLQRQANILLGACNLDCFHSDKHEDVIARELIEKMIAMDPQQRPSAKHVLKHPFFWSLEKQLQFFQDVSDRIEKEALDGPIVRQLERGGRAVVKMDWRENITVPLQTDLRKFRTYKGGSVRDLLRAMRNKKHHYRELPVEVQETLGSIPDDFVRYFTSRFPHLLSHTYQAMELCRHERLFQTYYWHEPTEPQPPVIPYAL
